Measured values taken from PubChem BioAssay AID256 (DTP/NCI, 2004).
The list is a part of this screen's results and no random one: it gathers tests that were run many times, whatever their T/C, doses with no T/C, and many T/C values between a quarter and a half above the control. Further doses and runs are listed elsewhere. T/C: endpoint of the treated group in % of that of the vehicle group. Some entries give survivors of the animals treated and no T/C: the source holds a T/C of zero for them, seemingly a mark for toxic or unscored doses. Some doses without a T/C left all or most animals alive at the check, yet need not have been tolerated: survival well below the control is almost never listed, so the zero probably covers shortened survival too. Counts of survivors are from the toxicity check (mostly the fifth day) where no day follows; animals may have died later. Schedules are NCI's codes, taken here to give the interval after Q, in days (D) or hours (H), and the number of doses after X. Brackets with × say how often a value occurs here. Some doses were run more than once; their values stand side by side, smallest first. For survival time, this PubChem deposit counts one and a half times the control or more as active, and values a quarter to a half above the control carry no call in these data; other NCI protocols may use other cut-offs. Some T/C values carry the count of animals alive at the toxicity check (mostly the fifth day); where none is given, no animal had died by that day.

Tested on: CD2F1 mice, L1210 leukemia ip, survival T/C
Assay: NCI In Vivo Anticancer Drug Screen. Data for tumor model L1210 Leukemia (intraperitoneal) in CD2F1 (CDF1) mice
Conditions: higher T/C = longer survival
Method in brief: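 Antitumor effect is scored in animals hosting a serially transplanted tumor. Values compare compound-dosed animals against vehicle-only controls as a simple quotient.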

[1] = T/C endpoint: mean survival time, dose: 300.0 mg/kg/injection, schedule: Q01DX001 (ip), vehicle: saline
[2] = T/C endpoint: mean survival time, dose: 400.0 mg/kg/injection, schedule: Q01DX009 (ip), vehicle: saline with Tween-80
[3] = T/C endpoint: mean survival time, dose: 200.0 mg/kg/injection, schedule: Q04DX002 (ip), vehicle: saline with Tween-80
[4] = T/C endpoint: mean survival time, dose: 400.0 mg/kg/injection, schedule: Q01DX001 (ip), vehicle: saline with Tween-80
[5] = T/C endpoint: mean survival time, dose: 25.0 mg/kg/injection, schedule: Q01DX009 (ip), vehicle: saline with Tween-80
[6] = T/C endpoint: mean survival time, dose: 50.0 mg/kg/injection, schedule: Q04DX003 (ip), vehicle: saline with Tween-80
[7] = T/C endpoint: mean survival time, dose: 400.0 mg/kg/injection, schedule: Q04DX003 (ip), vehicle: saline with Tween-80
[8] = T/C endpoint: mean survival time, dose: 400.0 mg/kg/injection, schedule: Q04DX003 (ip), vehicle: saline

Structure (SMILES): COC/C=N/N(C)C
- survivor count [1]: 2 of 6

Structure (SMILES): CCOC1C=CCCC1 (stereo not drawn)
- survivor count [2]: 3 of 6

Structure (SMILES): N#CSCCOCCSC#N
- survivor count (T/C endpoint: mean survival time, dose: 10.0 mg/kg/injection, schedule: Q04DX003 (ip), vehicle: saline with Tween-80): 0 of 6

Structure (SMILES): O=C(O)CCC(NC(=O)COc1ccc(Cl)cc1Cl)C(=O)O (stereo not drawn)
- survivor count [3]: 3 of 3

Structure (SMILES): COCC/C(COC)=N/N
- survivor count (T/C endpoint: mean survival time, dose: 200.0 mg/kg/injection, schedule: Q01DX009 (ip), vehicle: saline with Tween-80): 3 of 6
- survivor count [2]: 0 of 6

Structure (SMILES): COc1cc2c(cc1OC)-c1c3c(cc4c1[C@@H](C2)N(C)CC4)OCO3
- survivor count (T/C endpoint: median survival time, dose: 200.0 mg/kg/injection, schedule: Q01DX005 (ip), vehicle: distilled water + Tween-80): 0 of 6

Structure (SMILES): O=C(O)C1CCCCC1C(=O)O.[NH-]C1CCC1.[NH2-].[Pt+2] (stereo not drawn)
- survivor count (T/C endpoint: median survival time, dose: 100.0 mg/kg/injection, schedule: Q04DX003 (ip), vehicle: distilled water + Tween-80): 2 of 6
- survivor count (T/C endpoint: median survival time, dose: 200.0 mg/kg/injection, schedule: Q04DX003 (ip), vehicle: distilled water + Tween-80): 0 of 6

Structure (SMILES): CCC(/C=C1\[Se]c2ccc(C)cc2N1CC)=C\c1[se]c2ccc(C)cc2[n+]1CC
- survivor count (T/C endpoint: mean survival time, dose: 75.0 mg/kg/injection, schedule: Q01DX001 (ip), vehicle: other): 0 of 6
- survivor count (T/C endpoint: mean survival time, dose: 150.0 mg/kg/injection, schedule: Q01DX001 (ip), vehicle: other): 0 of 6
- survivor count (T/C endpoint: mean survival time, dose: 300.0 mg/kg/injection, schedule: Q01DX001 (ip), vehicle: other): 0 of 6

Structure (SMILES): CN(C)Cc1ccccc1
- survivor count [4]: 0 of 6

Structure (SMILES): CS(=O)(=O)Nc1ccc(Nc2c3ccccc3nc3cc(N)ccc23)cc1
- T/C (T/C endpoint: mean survival time, dose: 1.3 mg/kg/injection, schedule: Q01DX009 (ip), vehicle: saline): 144 % of control
- T/C (T/C endpoint: mean survival time, dose: 2.0 mg/kg/injection, schedule: Q01DX009 (ip), vehicle: saline): 131 % of control
- T/C (T/C endpoint: mean survival time, dose: 6.0 mg/kg/injection, schedule: Q01DX001 (ip), vehicle: saline): 139 % of control [5 of 6 alive]

Structure (SMILES): C[CH2][Pb]([CH2]C)([CH2]C)[O]C(=O)c1cc(-c2ccccc2)nc2ccccc12
- survivor count (T/C endpoint: mean survival time, dose: 12.5 mg/kg/injection, schedule: Q01DX009 (ip), vehicle: saline with Tween-80): 1 of 6
- survivor count [5]: 1 of 6

Structure (SMILES): O=C(/C(Br)=C/c1ccccc1)c1ccccc1
- survivor count (T/C endpoint: mean survival time, dose: 400.0 mg/kg/injection, schedule: Q04DX003 (ip), vehicle: other): 5 of 6

Structure (SMILES): Nc1cccc(Oc2ccc([N+](=O)[O-])cc2)c1
- survivor count (T/C endpoint: mean survival time, dose: 400.0 mg/kg/injection, schedule: Q01DX001 (ip), vehicle: Klucel (hydroxypropylcellulose) (HPC)): 3 of 3

Structure (SMILES): CC(C)(C)N1C2CCCC21 (stereo not drawn)
- survivor count (T/C endpoint: mean survival time, dose: 100.0 mg/kg/injection, schedule: Q01DX001 (ip), vehicle: saline): 0 of 6
- survivor count (T/C endpoint: mean survival time, dose: 200.0 mg/kg/injection, schedule: Q01DX001 (ip), vehicle: saline): 0 of 6
- survivor count (T/C endpoint: mean survival time, dose: 400.0 mg/kg/injection, schedule: Q01DX001 (ip), vehicle: saline): 0 of 6

Structure (SMILES): O=C(O)c1[nH]c(=O)[nH]c(=O)c1F.[Ga]
- T/C (T/C endpoint: mean survival time, dose: 80.0 mg/kg/injection, schedule: Q01DX001 (ip), vehicle: saline with Tween-80): 132 % of control
- T/C (T/C endpoint: mean survival time, dose: 118.0 mg/kg/injection, schedule: Q01DX001 (ip), vehicle: saline with Tween-80): 131 % of control
- survivor count (T/C endpoint: mean survival time, dose: 266.0 mg/kg/injection, schedule: Q01DX001 (ip), vehicle: saline with Tween-80): 0 of 6

Structure (SMILES): C[n+]1c(/C=C/c2ccc([N+](=O)[O-])cc2)ccc2ccccc21
- survivor count [5]: 6 of 6
- survivor count [6]: 1 of 6
- survivor count (T/C endpoint: mean survival time, dose: 100.0 mg/kg/injection, schedule: Q04DX003 (ip), vehicle: saline with Tween-80): 0 of 6

Structure (SMILES): CN(C)/N=C/c1cccc(CC(O)(C(F)(F)F)C(F)(F)F)n1
- survivor count [4]: 0 of 6

Structure (SMILES): CCN(C(=O)CCl)c1ccccc1C
- survivor count [7]: 0 of 6

Structure (SMILES): CN(C)CCNC(=O)C(c1ccccc1)c1ccccc1
- survivor count (T/C endpoint: mean survival time, dose: 200.0 mg/kg/injection, schedule: Q04DX003 (ip), vehicle: saline with Tween-80): 3 of 6
- survivor count [7]: 0 of 6

Structure (SMILES): Cc1ccc(S(=O)(=O)Cl)cc1
- survivor count (T/C endpoint: mean survival time, dose: 400.0 mg/kg/injection, schedule: Q04DX002 (ip), vehicle: saline): 3 of 3

Structure (SMILES): Cc1ccc(C2CC3c4ccccc4C2C2CCCCN32)cc1 (stereo not drawn)
- survivor count (T/C endpoint: mean survival time, dose: 3.13 mg/kg/injection, schedule: Q01DX009 (ip), vehicle: water): 6 of 6
- survivor count (T/C endpoint: mean survival time, dose: 25.0 mg/kg/injection, schedule: Q01DX009 (ip), vehicle: water): 6 of 6 (2×)
- survivor count (T/C endpoint: mean survival time, dose: 50.0 mg/kg/injection, schedule: Q01DX009 (ip), vehicle: water): 0 of 6 and 3 of 6
- survivor count (T/C endpoint: mean survival time, dose: 100.0 mg/kg/injection, schedule: Q01DX009 (ip), vehicle: water): 0 of 6 (2×)
- survivor count (T/C endpoint: mean survival time, dose: 200.0 mg/kg/injection, schedule: Q01DX009 (ip), vehicle: water): 0 of 6 (2×)
- survivor count (T/C endpoint: mean survival time, dose: 400.0 mg/kg/injection, schedule: Q01DX009 (ip), vehicle: water): 0 of 6 (2×)

Structure (SMILES): CN(Cc1cnc2nc(N)nc(N)c2n1)c1ccc(C(=O)NC(CCC(=O)NC(CCC(=O)NC(CCC(=O)O)C(=O)O)C(=O)O)C(=O)O)cc1 (stereo not drawn)
- T/C (T/C endpoint: mean survival time, dose: 4.0 mg/kg/injection, schedule: Q01DX005 (ip), vehicle: sodium bicarbonate): 129 and 144 % of control [5 of 6 alive]
- survivor count (T/C endpoint: mean survival time, dose: 32.0 mg/kg/injection, schedule: Q01DX005 (ip), vehicle: sodium bicarbonate): 4 of 6

Structure (SMILES): O=N[O-].[Co].[N-]=C=S.[NH2-].[NH2-].[NH2-].[NH2-]
- T/C (T/C endpoint: mean survival time, dose: 50.0 mg/kg/injection, schedule: Q01DX009 (ip), vehicle: saline with Tween-80): 125 % of control

Structure (SMILES): CCCC(CN(C)C)C(=O)c1ccccc1 (stereo not drawn)
- survivor count [3]: 1 of 3
- survivor count (T/C endpoint: mean survival time, dose: 400.0 mg/kg/injection, schedule: Q04DX002 (ip), vehicle: saline with Tween-80): 0 of 3

Structure (SMILES): O=C(O)CSc1ccccc1
- survivor count (T/C endpoint: mean survival time, dose: 100.0 mg/kg/injection, schedule: Q04DX003 (ip), vehicle: other): 1 of 6
- survivor count [8]: 3 of 6

Structure (SMILES): CN(Cc1ccc([N+](=O)[O-])cc1)N=Nc1ccc(C(=O)O)cc1
- survivor count (T/C endpoint: mean survival time, dose: 400.0 mg/kg/injection, schedule: Q01DX009 (ip), vehicle: other): 1 of 3

Structure (SMILES): CCCCCCCCCCCCS(=O)(=O)O
- survivor count [7]: 0 of 7

Structure (SMILES): CC(C(=O)O)C(C(=O)O)C(=O)O (stereo not drawn)
- survivor count [8]: 2 of 6

Structure (SMILES): CCCCCC(=O)N1CCCC1
- survivor count [7]: 1 of 6

Structure (SMILES): CCC(=O)/C(=C\c1ccccc1Cl)C(C)=O
- survivor count [2]: 5 of 6

Structure (SMILES): C[n+]1ccc2ccccc2c1
- survivor count [1]: 1 of 6

Structure (SMILES): C=C(Cl)CNC(N)=S
- survivor count [7]: 1 of 6

Structure (SMILES): COC1(OC)C(Cl)=C(Cl)C(Cl)=C1Cl
- survivor count [6]: 2 of 6

Structure (SMILES): CCCC(=O)NNC(=O)c1ccccn1
- survivor count (T/C endpoint: mean survival time, dose: 200.0 mg/kg/injection, schedule: Q01DX009 (ip), vehicle: saline sonified): 6 of 6
- survivor count (T/C endpoint: mean survival time, dose: 400.0 mg/kg/injection, schedule: Q01DX009 (ip), vehicle: saline sonified): 1 of 6

Structure (SMILES): S=c1n(Cc2ccccc2)cnc2ncnn12
- survivor count (T/C endpoint: mean survival time, dose: 400.0 mg/kg/injection, schedule: Q04DX003 (ip), vehicle: Klucel (hydroxypropylcellulose) (HPC)): 1 of 6
